No constants are given. Whether binding was seen depends on the method and setting. In cells and extracts the contact can be indirect. Here binding means that the protein was enriched with, or labelled near, the bait; the list need not be complete.
Tests used:
[1] = target: FAM134B N-terminally tagged with the V1 or V2 fragment of the Venus protein (UniProt Q9H6L5); test: affinity purification with mass spectrometry; BiCAP: HEK293T cells transiently transfected with V1- and V2-tagged constructs; lysis in 1% Triton X-100 IP buffer, diluted to 0.3%; GFP-Trap beads overnight at 4 °C; label-free LC–MS
HA–FAM134B = HA–FAM134B (UniProt Q9H6L5); test: affinity purification with mass spectrometry; HA–FAM134B induced with doxycycline in U2OS cells; lysis in 1% Triton X-100 IP buffer, diluted to 0.3%; HA-agarose beads overnight at 4 °C; LC–MS

Sequences of proteins named here, by UniProt entry; tags and fusion partners are left off.
UniProt Q9H6L5: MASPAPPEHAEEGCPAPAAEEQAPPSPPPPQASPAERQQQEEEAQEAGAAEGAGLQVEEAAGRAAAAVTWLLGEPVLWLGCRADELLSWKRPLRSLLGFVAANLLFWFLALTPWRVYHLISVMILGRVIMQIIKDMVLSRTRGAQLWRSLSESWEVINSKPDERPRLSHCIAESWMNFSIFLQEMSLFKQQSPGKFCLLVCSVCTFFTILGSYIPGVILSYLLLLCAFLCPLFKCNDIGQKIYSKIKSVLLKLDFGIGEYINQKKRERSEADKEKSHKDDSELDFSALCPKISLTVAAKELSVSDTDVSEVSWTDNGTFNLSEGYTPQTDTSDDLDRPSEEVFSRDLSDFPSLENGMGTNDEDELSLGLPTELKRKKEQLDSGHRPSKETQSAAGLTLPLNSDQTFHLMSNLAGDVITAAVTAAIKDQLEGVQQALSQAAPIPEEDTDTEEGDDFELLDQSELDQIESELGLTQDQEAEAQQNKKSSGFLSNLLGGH

Row | binding [1] | binding (HA–FAM134B) | Substance
1 | binds |  | FAM134B N-terminally tagged with the V1 or V2 fragment of the Venus protein (from UniProt Q9H6L5 1-497)
2 |  | binds | endogenous ARL6IP1 (human cells) (from UniProt Q15041-1 1-203)
3 | binds |  | ARL6IP1 N-terminally tagged with the V1 or V2 fragment of the Venus protein (from UniProt Q15041 1-203)
